No constants are given. Whether binding was seen depends on the method and setting. Binding seen in cells or lysates may run through a third protein. Some binding calls cover weakened binding; strength is not graded here.
Tests used:
hY4R‐eYFP (human) [1] = target: hY4R‐eYFP (human) (UniProt P50391); assay: FRET or BRET; NanoBRET in transiently transfected HEK293 cells expressing hY1/2/4R-eYFP and Nluc-arr3; read 15 min after stimulation with increasing peptide concentrations (native ligands NPY or hPP, [F7,P34]-NPY, conjugates); BRET buffer (HBSS, 25 mM HEPES, pH 7.3), 37 °C
hY4R‐eYFP (human) [2] = target: hY4R‐eYFP (human) (UniProt P50391); assay: condition: only cells stimulated with conjugate 6 or 8; FRET or BRET; NanoBRET in transiently transfected HEK293 cells expressing hY1/2/4R-eYFP and Nluc-arr3; cells stimulated 15 min with the multiply loaded conjugates 6, 7 or 8; BRET buffer (HBSS, 25 mM HEPES, pH 7.3), 37 °C

The chains behind the UniProt entries cited, without tags or fusion partners.
UniProt P50391: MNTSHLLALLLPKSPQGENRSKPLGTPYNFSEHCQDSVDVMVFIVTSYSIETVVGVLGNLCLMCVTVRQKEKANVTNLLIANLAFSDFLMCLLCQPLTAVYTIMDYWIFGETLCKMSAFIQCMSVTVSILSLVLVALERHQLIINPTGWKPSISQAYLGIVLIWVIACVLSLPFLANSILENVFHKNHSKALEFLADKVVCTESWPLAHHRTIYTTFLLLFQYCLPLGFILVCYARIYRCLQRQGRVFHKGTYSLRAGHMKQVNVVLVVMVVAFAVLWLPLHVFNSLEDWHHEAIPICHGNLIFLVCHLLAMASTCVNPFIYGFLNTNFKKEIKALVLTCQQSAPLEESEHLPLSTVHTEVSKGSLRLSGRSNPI
UniProt P32121: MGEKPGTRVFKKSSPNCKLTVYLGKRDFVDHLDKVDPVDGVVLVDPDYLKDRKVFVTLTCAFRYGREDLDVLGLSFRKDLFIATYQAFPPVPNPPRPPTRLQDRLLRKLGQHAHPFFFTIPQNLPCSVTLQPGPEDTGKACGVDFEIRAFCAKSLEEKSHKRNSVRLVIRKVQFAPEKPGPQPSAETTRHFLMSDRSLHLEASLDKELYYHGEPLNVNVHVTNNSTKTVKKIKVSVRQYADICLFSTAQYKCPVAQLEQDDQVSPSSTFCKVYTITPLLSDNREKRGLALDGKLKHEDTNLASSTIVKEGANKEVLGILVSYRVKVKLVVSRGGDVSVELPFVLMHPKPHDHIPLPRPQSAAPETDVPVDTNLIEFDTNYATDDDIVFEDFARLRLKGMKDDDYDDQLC

- binding (hY4R‐eYFP (human) [1]): binds
- binding (hY4R‐eYFP (human) [2]): no binding
Substance: Nluc‐arr3 (arrestin‐3) (from UniProt P32121 1-409)
